{"source": "patent US5750354A", "about": "“Lipoxin transport system and uses therefor” (priority 1994, dated 1998)", "tested_on": "lipoxin transport system", "experiment": "[3H]LXA4 influx into human neutrophils (unidirectional tracer flux)", "settings": "pHo 5.0-8.3, titration curve fit", "note": "“And” between values parts separate entries of the source, which are not always exact repeats. Equal values may be shown once.", "data": [{"smiles": "CCCCC[C@H](O)/C=C/C=C\\C=C\\C=C\\[C@@H](O)[C@@H](O)CCCC(=O)O", "note": "[LXA4, (5S,6R,15S)-trihydroxy-7,9,13-trans-11-cis-eicosatetraenoic acid]", "values": [{"measurement": "apparent pK' of pH dependence of [3H]LXA4 influx", "result": "5.9±0.1 and 5.9"}]}]}
